PubChem BioAssay AID1259405 – NCATS | 2018

- Test: 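Knock-downs that lift recombinant protein yield in hamster ovary cells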 (primary screen)
- System: Chinese hamster CHO-K1 ovary cells with stable secreted eGFP expression
- Reagent: single siRNA against mouse genes, 0.8 pmol siRNA per well (2 µl of 400 nM stock)
- Timing: 3 days
- Detection: 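Percent of the per-plate non-targeting control median for intracellular GFP per well by laser scanning cytometry and for cell viability by ATP luminescence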
- Direction: GFP, % of control: higher = more GFP per well, higher productivity; viability (ATP), % of control: higher = more viable cells (more ATP)
- Rule for the call: 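a knock-down is called active if GFP reaches 120% or more of non-targeting control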
The whole screen tested about 50,000 reagents; this is a random part of them. Over the whole deposit, about 4,000 (8%) got an active call. 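Mouse siRNA library applied to hamster cells; one well for each siRNA.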 Entries without a mark were called inactive. No sequences are given here.

no.	gene symbol	PubChem SID	GFP, % of control	viability (ATP), % of control
1	Six1	SID363555000	88.6	85.5
2	Six1	SID363568447	83.9	42.7
3	Six1	SID363586506	84.9	91.1
4	Yipf7	SID363543533	139 (active)	93
5	Yipf7	SID363553026	60.4	79.4
6	Yipf7	SID363558874	62.9	93.3
7	Dpy30	SID363543853	78.6	75.6
8	Dpy30	SID363551589	83.5	92.7
9	Dpy30	SID363559194	94.3	74.4
10	Vdac1	SID363574810	130 (active)	106
11	Vdac1	SID363575866	45.4	45.1
12	Vdac1	SID363580442	29.5	75.6
13	Nptx1	SID363582490	111	112
14	Nptx1	SID363584250	68.8	83.3

Reagents listed above called active:
gene symbol	PubChem SID	GFP, % of control	viability (ATP), % of control
Yipf7	SID363543533	139 (active)	93
Vdac1	SID363574810	130 (active)	106

Further records follow.
no.	gene symbol	PubChem SID	GFP, % of control	viability (ATP), % of control
15	Grid1	SID363544144	50.7	30.3
16	Grid1	SID363550472	68.5	66.9
17	Grid1	SID363557021	44.4	81.4
18	Tanc1	SID363540804	67.8	79.6
19	Tanc1	SID363543255	105	83.1
20	Tanc1	SID363552748	228 (active)	90.2
21	Tanc1	SID363589812	67.8	86.2
22	Tanc1	SID363589813	95.6	92.9
23	Tanc1	SID363589814	141 (active)	93.3
24	Lrrd1	SID363542328	96.6	60.8
25	Lrrd1	SID363551819	54.6	63.7
26	Lrrd1	SID363559424	85.6	76.4
27	Spmap1	SID363540776	104	109
28	Spmap1	SID363543227	83.5	86.5
29	Spmap1	SID363552720	84.7	38.2
30	Luzp1	SID363540331	54.3	66.9
31	Luzp1	SID363542083	99	76.2
32	Luzp1	SID363566999	96.8	73.7
33	Ppp3ca	SID363574977	116	106
34	Ppp3ca	SID363580609	64.8	60.7
35	Ppp3ca	SID363582721	82.6	72.3
